Experimental data taken from patent US20230149401A1 (priority 2020, published 2023).
Some entries share one result that the patent states for a list of compounds. Residues, ends and D or L forms follow the SMILES beside them.

System: SARS-CoV-2 Spike ACE2-dependent cell-to-cell fusion
Format: cell-based
Conditions: 10 μM

CCCCCCCCCC(=O)N[C@@H](CCCNC(=N)N)C(=O)N[C@H](C(=O)N[C@@H](CCCCN)C(=O)N[C@@H](CCCNC(=N)N)C(=O)CCl)C(C)C [RVKR-cmk, Decanoyl-Arg-Val-Lys-Arg-CMK, reference compound] (HELM PEPTIDE1{[CCCCCCCCCC(=O)[*:2]].R.V.K.R.[ClC[*:1]]}$$$$V2.0)
fusion-inhibition: > 60%
